Values of other authors, collected in patent US20090118204A1, “Methods and Compositions Related to Esculentoside A” (UNIVERSITY OF ROCHESTER, priority 2004, published 2009).
At least one compound was matched to its structure with a doubt left.

Legend:
IR brain edema = settings: mouse, in vivo; cited from earlier work
[1] = cited from earlier work

| Compound | IR toxicity in brain and soft tissue (IR brain edema) | cross reaction with sulfonamide antibiotics [1] |
| --- | --- | --- |
| Cc1ccc(-c2cc(C(F)(F)F)nn2-c2ccc(S(N)(=O)=O)cc2)cc1 [Celebrex, celecoxib, reference compound] | protected | – |
| COC(=O)[C@@]1(C)CC[C@]2(C(=O)O)CC[C@]3(C)C(=CC[C@@H]4[C@@]5(C)C[C@H](O)[C@H](O[C@@H]6OC[C@@H](O[C@@H]7O[C@H](CO)[C@@H](O)[C@H](O)[C@H]7O)[C@H](O)[C@H]6O)[C@@](C)(CO)[C@@H]5CC[C@]43C)[C@@H]2C1 [EsA, Esculentoside A] | – | does not have a cross reaction |
